For at least one compound, name, drawing or mass did not settle the structure. Some entries share one result that the patent states for a list of compounds.
Columns and labels:
adult EAB = assay: Two-choice Y-tube olfactometer bioassay; type: in vivo, Agrilus planipennis; conditions: 1 μg stimulus, 10 min choice, chi-square vs 1:1; for attraction of female EAB to stimulus vs solvent control: females, FIG. 6; for attraction of male EAB to stimulus vs solvent control: males, FIG. 5
Procedure: A Y-tube olfactometer (Analytical Research Systems Inc, Micanopy, Fla., USA) was used to test for short-range attraction of adult EAB to the lactones. […] Each arm was connected to a cylinder that contained the stimulus. Charcoal-filtered air was passed into each arm at a flow rate of 1.2 L/min. Treatments were 1 μg each of (3Z)-lactone, (3E)-lactone, and dodecan-12-olide. Each stimulus was diluted in dichloromethane, placed on a strip of filter paper, and given 1 min for the solvent to evaporate before being placed in the olfactometer. A filter paper with only solvent (control) was placed in the other arm of the olfactometer. The apparatus was rinsed with acetone after each treatment, and the arm attached to the test stimulus was randomized between replicates. For each trial, a single EAB (male or female) was given 10 min to choose between the two stimuli. A choice was recorded when the beetle passed a “finish line”, 7 cm beyond the branching point of each arm. […] Beetles were 8-14 d old, and 18-23 beetles were used per treatment.
For the EAG results, male and female EAG responses were submitted to analysis of variance (ANOVA) and mean responses to each of the tested compounds separated using Tukey's test (P<0.05). […] Finally, in the trapping study, numbers of male and female EAB captured among the three treatments were analyzed separately by fitting generalized linear mixed effect models, with block as a random factor, to the Poisson distribution (GLMER function, R Development Core Team 2013). Chi-square tests were used to determine if a significant proportion of the variation in capture of male and female EAB was attributable to treatment. Chi-square tests were considered significant at P=0.05 or less and, if significant, the means separated using the Tukey's contrast option in the GLHT function (R Development Core Team 2013); raw data are presented as means±standard error.

[1] = test system: male and female EAB antennae; assay: Electroantennography (EAG), puff technique; parameters: species or system Agrilus planipennis; conditions: 1 μg source concentration; vs solvent control (dichloromethane); responses to the three compounds not significantly different from each other (Tukey's); FIG. 4
Procedure: Electroantennogram analyses (EAG) were conducted using methods and equipment generally described by Silk et al. in 2007 (Silk P J, et al (2007) Evidence for a male-produced pheromone in Tetropium fuscum (F.) (Coleoptera: Cerambycidae). Naturwissenschaften 94: 697-701). Antennae were excised close to the head and mounted using electrode gel (Spectra 360 electrode gel; Parker, Fairfield, N.J., USA) on an EAG probe (gold) for electrical contact. EAG signals were recorded using Syntech recording and analysis software v. 2.6 (Syntech, Hilversum, The Netherlands). […]
For the EAG results, male and female EAG responses were submitted to analysis of variance (ANOVA) and mean responses to each of the tested compounds separated using Tukey's test (P<0.05). […] Finally, in the trapping study, numbers of male and female EAB captured among the three treatments were analyzed separately by fitting generalized linear mixed effect models, with block as a random factor, to the Poisson distribution (GLMER function, R Development Core Team 2013). […]

EAB [2] = conditions: cited from earlier work; for trapping of EABs in green prism traps in the Ash tree canopy: in combination with (3Z)-hexenol
Release rate of lures = type: physicochemical; conditions: for duration of sustained and almost constant release rates: rubber septa lures, estimated
Procedure: Traps were baited with one of three treatments: 1) (3Z)-hexenol alone; 2) 3.0 mg dose of (3Z)-lactone+(3Z)-hexenol; or 3) dodecan-12-olide+(3Z)-hexenol. The dodecan-12-olide dose was 3.0 mg or 5.0 mg. A higher dose of the analog was used to attempt to increase its effect on captures of EAB relative to the (3Z)-lactone. (3Z)-Lactone and the analog were each loaded onto rubber septa lures (Wheaton Scientific, Millville, N.J.). (3Z)-Hexenol lures were obtained from Synergy Semiochemicals. Release rates of the 3.0 mg (3Z)-lactone, 3.0 mg and 5.0 mg dodecan-12-olide lures, and (3Z)-hexenol were ˜66 μg/d, ˜60 μg/d and ˜80 μg/d. These values were determined as in Silk et al. 2011, and 50-100 mg/d (by weight loss), respectively, at 25° C. The (3Z)-lactone and analog lures were estimated to maintain sustained and almost constant release rates for a minimum of 6 wk, and thus were not replaced during the experiment. Similarly, (3Z)-hexenol lures were not replaced during the experiment.

EAB [3] = assay: Field trapping studies, dark green sticky prism traps co-baited with (3Z)-hexenol; type: in vivo, Agrilus planipennis; conditions: FIG. 7b; dodecan-12-olide 5 mg, (3Z)-lactone 3 mg per lure; P<0.01
Procedure: Three trapping experiments were conducted to test the effects of (3Z)-lactone and dodecan-12-olide on mean captures of EAB on dark green sticky prism traps using protocols discussed by Francese et al. in 2010 (Francese J A, Crook D J, Fraser I, Lance D A, A. J. Sawyer A J, Mastro V C (2010a) Optimization of trap color for the emerald ash borer, Agrilus planipennis (Coleoptera: Buprestidae). J Econ Entomol 103: 1235-1241) co-baited with (3Z)-hexenol. Urban street trees were used: trees were 20-40 cm in diameter, and 10-16 m in height. […] Dark green prism sticky traps (0.30×25.00×58.75 cm) (Synergy Semiochemicals Corp., Burnaby, British Columbia) were used in all field trials. Traps were spaced˜25 m apart, and lure treatments replicated in a randomized complete block design. Traps were deployed using either a limb hook over a lower to mid-canopy branch or a single rope over a mid-canopy branch. In both years, traps were checked every 2 wk and all EAB were collected, counted, and sexed.
Traps were baited with one of three treatments: 1) (3Z)-hexenol alone; 2) 3.0 mg dose of (3Z)-lactone+(3Z)-hexenol; or 3) dodecan-12-olide+(3Z)-hexenol. The dodecan-12-olide dose was 3.0 mg or 5.0 mg. […] These values were determined as in Silk et al. 2011, and 50-100 mg/d (by weight loss), respectively, at 25° C. […]

EABs = assay: Push-pull trial with high release rate disrupter lures; type: in vivo, Agrilus planipennis; conditions: four vs seven high release rate disrupter lures releasing (3Z)-lactone only; FIGS. 10, 11

| Structure (SMILES) | attraction of female EAB to stimulus vs solvent control (adult EAB) | attraction of male EAB to stimulus vs solvent control (adult EAB) | mean EAG responses of male and female EAB antennae [1] | trapping of EABs in green prism traps in the Ash tree canopy (EAB [2]) | release rate of lure (Release rate of lures; 3.0 mg on rubber septa lure, 25° C.) [µg/day] | duration of sustained and almost constant release rates (Release rate of lures) [wk] | females captured vs (3Z)-hexenol alone (EAB [3]) | total EAB captures on trap baited with (3Z)-hexenol and (3Z)-lactone surrounded by disrupter lures (EABs) | trap captures and detection rates on addition to green traps baited with (3Z)-hexenol (EAB [2]; detection rate = proportion of traps that captured at least one EAB) | increase in captures of EAB males compared with traps baited with (3Z)-hexenol alone (EAB [2]; green prism traps in Ash tree canopy, baited with (3Z)-hexenol as well) |
| --- | --- | --- | --- | --- | --- | --- | --- | --- | --- | --- |
| O=C1C/C=C/CCCCCCCCO1 [(3E)-lactone, (3E)-dodecen-12-olide] | but not to the (3E)-lactone | significantly attracted | significantly greater than those to the solvent control | effectively trap EABs (mostly males) | – | – | – | – | – | – |
| O=C1C/C=C\CCCCCCCCO1 [(3Z)-lactone, (3Z)-dodecen-12-olide] | somewhat attracted | not attracted | significantly greater than those to the solvent control | effectively trap EABs (mostly males) | ~66 | ≥ 6 | more females were captured | Increasing the number of high release-rate lures proportionally increased the number of EABs captured | not only increased trap captures, but also detection rates | up to 100% |
| O=C1CCCCCCCCCCCO1 [dodecan-12-olide] | – | – | – | – | – | ≥ 6 | – | – | – | – |
